# Laboratory results as given in publication PMC6695400, “Diversity of oligomerization in Drosophila semaphorins suggests a mechanism of functional fine-tuning” (Nature Communications, 2019).
# These are yes or no findings as the source states them, for the method shown. For part of these data: In cells and extracts the contact can be indirect. Some results given as binding are weak or reduced against the parent protein; the word gives no strength. For part of these data: Sequences can lack the tags named with a protein.
# T1: mouse Sema3A (residues 26–730, furin sites mutated) with C-terminal 3C-Avi-His6 tag (mouse) (UniProt O08665)
# T1 sequence: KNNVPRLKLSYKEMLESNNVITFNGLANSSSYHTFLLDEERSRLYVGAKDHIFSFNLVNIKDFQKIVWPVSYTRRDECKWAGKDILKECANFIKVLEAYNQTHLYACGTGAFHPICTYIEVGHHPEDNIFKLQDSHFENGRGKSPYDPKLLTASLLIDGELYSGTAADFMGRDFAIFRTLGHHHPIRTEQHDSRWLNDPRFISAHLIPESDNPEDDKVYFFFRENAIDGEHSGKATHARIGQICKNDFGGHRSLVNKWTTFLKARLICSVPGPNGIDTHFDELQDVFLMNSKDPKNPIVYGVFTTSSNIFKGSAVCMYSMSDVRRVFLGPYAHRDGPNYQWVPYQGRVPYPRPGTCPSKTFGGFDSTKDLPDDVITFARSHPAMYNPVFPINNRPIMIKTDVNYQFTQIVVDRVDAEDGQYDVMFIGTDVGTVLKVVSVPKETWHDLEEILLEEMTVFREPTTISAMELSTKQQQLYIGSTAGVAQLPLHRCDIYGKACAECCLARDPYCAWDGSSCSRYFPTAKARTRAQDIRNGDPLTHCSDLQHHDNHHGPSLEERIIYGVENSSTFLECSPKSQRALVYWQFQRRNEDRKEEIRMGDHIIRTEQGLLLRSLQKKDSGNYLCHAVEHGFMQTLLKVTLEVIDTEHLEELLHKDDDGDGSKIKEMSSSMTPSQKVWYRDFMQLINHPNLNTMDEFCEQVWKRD
# T2: Drosophila melanogaster PlexB1–4-mVenus (Drosophila melanogaster) (UniProt Q9V4A7)
# T2 sequence: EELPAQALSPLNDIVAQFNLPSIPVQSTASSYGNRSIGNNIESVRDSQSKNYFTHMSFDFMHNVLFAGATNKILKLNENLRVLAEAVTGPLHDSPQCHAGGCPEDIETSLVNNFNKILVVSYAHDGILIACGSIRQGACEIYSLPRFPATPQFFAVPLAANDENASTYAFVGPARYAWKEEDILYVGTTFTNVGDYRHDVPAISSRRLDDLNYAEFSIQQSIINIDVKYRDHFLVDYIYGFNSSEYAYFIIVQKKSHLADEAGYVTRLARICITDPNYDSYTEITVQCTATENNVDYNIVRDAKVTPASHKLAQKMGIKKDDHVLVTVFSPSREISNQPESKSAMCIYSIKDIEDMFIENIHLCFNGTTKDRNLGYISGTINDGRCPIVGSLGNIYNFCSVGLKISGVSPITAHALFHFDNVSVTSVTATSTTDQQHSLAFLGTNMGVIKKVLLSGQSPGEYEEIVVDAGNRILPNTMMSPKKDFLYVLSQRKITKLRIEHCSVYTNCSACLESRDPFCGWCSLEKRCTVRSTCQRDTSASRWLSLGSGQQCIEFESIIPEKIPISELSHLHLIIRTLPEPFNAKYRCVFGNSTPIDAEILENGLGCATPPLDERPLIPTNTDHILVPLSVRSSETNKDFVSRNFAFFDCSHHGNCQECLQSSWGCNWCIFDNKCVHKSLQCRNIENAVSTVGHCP
# T3: Drosophila melanogaster PlexA1–4-mVenus (Drosophila melanogaster, UniProt Q9V491 28-730)
# T3 construct: Plexin A, Drosophila melanogaster, domains 1-4 of the ectodomain, residues 28Q-730T; source: HEK293T, transient transfection, purified (HisTrap, SEC); not shown: mVenus, C-terminal, kept
# T3 sequence (looked up): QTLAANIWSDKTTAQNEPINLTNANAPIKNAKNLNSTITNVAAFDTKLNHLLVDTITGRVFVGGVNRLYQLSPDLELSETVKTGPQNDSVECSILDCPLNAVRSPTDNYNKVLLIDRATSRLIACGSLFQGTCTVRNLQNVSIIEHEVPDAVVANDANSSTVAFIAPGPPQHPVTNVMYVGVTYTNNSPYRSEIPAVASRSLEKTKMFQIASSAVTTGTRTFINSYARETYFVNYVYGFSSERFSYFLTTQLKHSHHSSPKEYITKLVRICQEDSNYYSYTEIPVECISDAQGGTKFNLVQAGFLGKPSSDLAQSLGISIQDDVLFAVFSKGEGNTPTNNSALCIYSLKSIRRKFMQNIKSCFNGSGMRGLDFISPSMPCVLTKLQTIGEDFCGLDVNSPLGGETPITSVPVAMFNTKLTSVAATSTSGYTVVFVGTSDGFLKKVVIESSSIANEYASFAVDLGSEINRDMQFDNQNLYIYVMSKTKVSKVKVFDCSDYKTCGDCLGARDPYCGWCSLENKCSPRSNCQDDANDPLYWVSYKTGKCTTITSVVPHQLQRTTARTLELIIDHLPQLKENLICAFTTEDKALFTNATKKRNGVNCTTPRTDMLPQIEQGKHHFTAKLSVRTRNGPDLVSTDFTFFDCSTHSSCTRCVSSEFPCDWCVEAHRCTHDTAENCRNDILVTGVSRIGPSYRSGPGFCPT
# B1: Sema2a_(full) with C-terminal TwinStrep tag (ligand, UniProt Q24323 26-724)
# chain: DYENTWNFYYERPCCTGNDQGNNNYGKHGADHVREFNCGKLYYRTFHMNEDRDTLYVGAMDRVFRVNLQNISSSNCNRDVINLEPTRDDVVSCVSKGKSQIFDCKNHVRVIQSMDQGDRLYVCGTNAHNPKDYVIYANLTHLPRSEYVIGVGLGIAKCPYDPLDNSTAIYVENGNPGGLPGLYSGTNAEFTKADTVIFRTDLYNTSAKRLEYKFKRTLKYDSKWLDKPNFVGSFDIGEYVYFFFRETAVEYINCGKAVYSRIARVCKKDVGGKNLLAHNWATYLKARLNCSISGEFPFYFNEIQSVYQLPSDKSRFFATFTTSTNGLIGSAVCSFHINEIQAAFNGKFKEQSSSNSAWLPVLNSRVPEPRPGTCVNDTSNLPDTVLNFIRSHPLMDKAVNHEHNNPVYYKRDLVFTKLVVDKIRIDILNQEYIVYYVGTNLGRIYKIVQYYRNGESLSKLLDIFEVAPNEAIQVMEISQTRKSLYIGTDHRIKQIDLAMCNRRYDNCFRCVRDPYCGWDKEANTCRPYELDLLQDVANETSDICDSSVLKKKIVVTYGQSVHLGCFVKIPEVLKNEQVTWYHHSKDKGRYEIRYSPTKYIETTERGLVVVSVNEADGGRYDCHLGGSLLCSYNITVDAHRCTPPNKSNDYQKIYSDWCHEFEKYKTAMKSWEKKQAQCSTRQNFSSNQHPNEIFRKPNV
# B2: mouse Sema3C (residues 22–711, furin sites mutated) with C-terminal TwinStrep tag (ligand, UniProt Q62181 22-711, looked up)
# chain: SSQPQARVYLTFDELRETKTSEYFSLSHQQLDYRILLMDEDQDRIYVGSKDHILSLNINNISQEPLSVFWPASTIKVEECKMAGKDPTHGCGNFVRVIQTFNRTHLYVCGSGAFSPVCTYLNRGRRSEDQVFMIDSKCESGKGRCSFNPNVNTVSVMINEELFSGMYIDFMGTDAAIFRSLTKRNAVRTDQHNSKWLSEPMFVDAHVIPDGTDPNDAKVYFFFKERLTDNNRSTKQIHSMIARICPNDTGGQRSLVNKWTTFLKARLVCSVTDEDGPETHFDELEDVFLLETDNPRTTLVYGIFTTSSSVFKGSAVCVYHLSDIQTVFNGPFAHKEGPNHQLISYQGRIPYPRPGTCPGGAFTPNMRTTKDFPDDVVTFIRNHPLMYNSIYPIHRRPLIVRIGTDYKYTKIAVDRVNAADGRYHVLFLGTDRGTVQKVVVLPTNSSASGELILEELEVFKNHVPITTMKISSKKQQLYVSSNEGVSQVSLHRCHIYGTACADCCLARDPYCAWDGHSCSRFYPTGKARSRAQDVRHGNPLTQCRGFNLKAYRNAAEIVQYGVRNNSTFLECAPKSPQASIKWLLQKDKDRRKEVKLNERIIATSQGLLIRSVQDSDQGLYHCIATENSFKQTIAKINFKVLDSEMVAVVTDKWSPWTWAGSVRALPFHPKDILGAFSHSEMQLINQYCKD
# notes: Semaphorin-3C, mouse, residues 22-711, furin cleavage sites mutated (R548, 552A); also called Sema3C-TwinStrep; source: HEK293T, transient co-transfection, secreted into conditioned medium; not shown: TwinStrep, C-terminal, kept
# B3: Drosophila melanogaster Sema1b1–2 (sema and PSI domains) (domain or fragment, UniProt Q7KK54 37-602)
# chain: DVKPDLQTKQDKVLAHFIGNSTDYFKILDHNDEFVLVGAKDVIYNVSLNGLKEIARLEWHSTDADRELCALKGKHEWDCHNYLRVYALRPNGEVLLCGTNSYKPRCRHYTPVEVSSEEAGSAGHAHAMRYEVSRDVEAQGLCPYSPAHNSTYAFADGHLYSATVADFSGGDPLIYRENLRTEQYDLKQLNQPDFVGAIERNGYVLFFFRELSMEVMNFGKAVYSRVARVCKNDRGGPYSHGKSWTSFLKARLNCSVPGEFPFYFDEIQAISPIVESGSKSLIYAVFTTSVNAIPGSAVCAFNVDDILAAFDGEFKSQKDSQSHWLPVEREQVPKPRPGQCVEDSRTLTSIAVNFIKNHPLMEEAVPAVHGRPLLTKVNLHHRLTAIAVHPQVKSLSGAYYDVIYSGTDDGKVTKFINILSTHPNSTVDRLKTVVISEMQVLPLGTPIRELVISTSKNSLVVVSDGSLVSVPLHHCSHIVDCLGCLSLQDPICAWDLQTHECKNLATSQHKFGTKTYLQSLNSTKKAAALLCPHIPRDAPGAETVSFVTMAPPPTEEQKLLYSNVGS
# B4: Drosophila melanogaster semaphorin-1b full-length ectodomain (Sema1b_(ecto)) (domain or fragment, UniProt Q7KK54 37-659, looked up)
# chain: DVKPDLQTKQDKVLAHFIGNSTDYFKILDHNDEFVLVGAKDVIYNVSLNGLKEIARLEWHSTDADRELCALKGKHEWDCHNYLRVYALRPNGEVLLCGTNSYKPRCRHYTPVEVSSEEAGSAGHAHAMRYEVSRDVEAQGLCPYSPAHNSTYAFADGHLYSATVADFSGGDPLIYRENLRTEQYDLKQLNQPDFVGAIERNGYVLFFFRELSMEVMNFGKAVYSRVARVCKNDRGGPYSHGKSWTSFLKARLNCSVPGEFPFYFDEIQAISPIVESGSKSLIYAVFTTSVNAIPGSAVCAFNVDDILAAFDGEFKSQKDSQSHWLPVEREQVPKPRPGQCVEDSRTLTSIAVNFIKNHPLMEEAVPAVHGRPLLTKVNLHHRLTAIAVHPQVKSLSGAYYDVIYSGTDDGKVTKFINILSTHPNSTVDRLKTVVISEMQVLPLGTPIRELVISTSKNSLVVVSDGSLVSVPLHHCSHIVDCLGCLSLQDPICAWDLQTHECKNLATSQHKFGTKTYLQSLNSTKKAAALLCPHIPRDAPGAETVSFVTMAPPPTEEQKLLYSNVGSSQGNQPSLEQQPTGGDDFGLNKITLTSMDPDDIMPNLNDPQKSTASVDEIKYASTPS
# notes: Semaphorin-1b, Drosophila melanogaster, ectodomain, residues 37D-659S; Monomer in solution; source: HEK293T (30 °C), transient transfection, purified (HisTrap, SEC)
# B5: Drosophila melanogaster full-length secreted semaphorin-2a (Sema2a_(full)) (ligand, UniProt Q24323 26-724, looked up)
# chain: DYENTWNFYYERPCCTGNDQGNNNYGKHGADHVREFNCGKLYYRTFHMNEDRDTLYVGAMDRVFRVNLQNISSSNCNRDVINLEPTRDDVVSCVSKGKSQIFDCKNHVRVIQSMDQGDRLYVCGTNAHNPKDYVIYANLTHLPRSEYVIGVGLGIAKCPYDPLDNSTAIYVENGNPGGLPGLYSGTNAEFTKADTVIFRTDLYNTSAKRLEYKFKRTLKYDSKWLDKPNFVGSFDIGEYVYFFFRETAVEYINCGKAVYSRIARVCKKDVGGKNLLAHNWATYLKARLNCSISGEFPFYFNEIQSVYQLPSDKSRFFATFTTSTNGLIGSAVCSFHINEIQAAFNGKFKEQSSSNSAWLPVLNSRVPEPRPGTCVNDTSNLPDTVLNFIRSHPLMDKAVNHEHNNPVYYKRDLVFTKLVVDKIRIDILNQEYIVYYVGTNLGRIYKIVQYYRNGESLSKLLDIFEVAPNEAIQVMEISQTRKSLYIGTDHRIKQIDLAMCNRRYDNCFRCVRDPYCGWDKEANTCRPYELDLLQDVANETSDICDSSVLKKKIVVTYGQSVHLGCFVKIPEVLKNEQVTWYHHSKDKGRYEIRYSPTKYIETTERGLVVVSVNEADGGRYDCHLGGSLLCSYNITVDAHRCTPPNKSNDYQKIYSDWCHEFEKYKTAMKSWEKKQAQCSTRQNFSSNQHPNEIFRKPNV
# notes: Semaphorin-2a, Drosophila melanogaster, residues 26D-724V; Disulfide-linked dimer in solution; source: HEK293T (37 °C), transient transfection, purified (HisTrap, SEC)
# Columns and labels:
# [1] = target: Sema2a_(full) with C-terminal TwinStrep tag (Drosophila melanogaster) (UniProt Q24323); assay: pull-down; HEK293T co-transfected with a His6-tagged and a TwinStrep-tagged semaphorin; conditioned medium 5 days post transfection; two-step affinity chromatography (HisTrap, then StrepTactin); western blot and SDS-PAGE of flow-through and eluate
# [2] = target: T1, mouse Sema3A (residues 26–730, furin sites mutated) with C-terminal 3C-Avi-His6 tag (mouse); assay: as above
# [3] = target: Drosophila melanogaster Sema1b1–2 (sema and PSI domains) (Drosophila melanogaster) (UniProt Q7KK54); assay: crystal structure; sitting-drop vapour diffusion at 20 °C; data at 100 K; both purified
# [4] = target: T2, Drosophila melanogaster PlexB1–4-mVenus (Drosophila melanogaster); assay: MST; plexin-mVenus kept constant, unlabelled semaphorin titrated (1:1 dilution series); 25 °C; 15 mM HEPES pH 7.4, 150 mM NaCl, 2 mM CaCl2, 0.005% Tween-20; 1 h incubation at room temperature; apparent Kd; both purified
# [5] = target: Drosophila melanogaster semaphorin-1b full-length ectodomain (Sema1b_(ecto)) (Drosophila melanogaster) (UniProt Q7KK54); assay: SEC-MALS; Superdex 200 Increase 10/300, 15 mM HEPES pH 7.4, 150 mM NaCl; with SDS-PAGE under reducing and non-reducing conditions; initial concentrations up to 2 mg/ml; monomer to dimer; both purified
# [6] = target: T3, Drosophila melanogaster PlexA1–4-mVenus; assay: MST; plexin-mVenus kept constant, unlabelled semaphorin titrated (1:1 dilution series); 25 °C; 15 mM HEPES pH 7.4, 150 mM NaCl, 2 mM CaCl2, 0.005% Tween-20; 1 h incubation at room temperature; apparent Kd; both purified
binder,measurement,setting,value
B1,binding,[1],binds
B2,binding,[2],binds
B3,binding,[3],no binding
B4,binding,[4],no binding
same,binding,[5],no binding (tested: 2 mg/ml)
B5,binding,[6],no binding
